Reference: publication PMC3621867
No constants are given. Whether binding was seen depends on the method and setting. In cells and extracts the contact can be indirect. A yes stands for co-enrichment or nearness to the bait. Other partners may have been found.

The chains behind the UniProt entries cited, without tags or fusion partners.
UniProt Q86YC2: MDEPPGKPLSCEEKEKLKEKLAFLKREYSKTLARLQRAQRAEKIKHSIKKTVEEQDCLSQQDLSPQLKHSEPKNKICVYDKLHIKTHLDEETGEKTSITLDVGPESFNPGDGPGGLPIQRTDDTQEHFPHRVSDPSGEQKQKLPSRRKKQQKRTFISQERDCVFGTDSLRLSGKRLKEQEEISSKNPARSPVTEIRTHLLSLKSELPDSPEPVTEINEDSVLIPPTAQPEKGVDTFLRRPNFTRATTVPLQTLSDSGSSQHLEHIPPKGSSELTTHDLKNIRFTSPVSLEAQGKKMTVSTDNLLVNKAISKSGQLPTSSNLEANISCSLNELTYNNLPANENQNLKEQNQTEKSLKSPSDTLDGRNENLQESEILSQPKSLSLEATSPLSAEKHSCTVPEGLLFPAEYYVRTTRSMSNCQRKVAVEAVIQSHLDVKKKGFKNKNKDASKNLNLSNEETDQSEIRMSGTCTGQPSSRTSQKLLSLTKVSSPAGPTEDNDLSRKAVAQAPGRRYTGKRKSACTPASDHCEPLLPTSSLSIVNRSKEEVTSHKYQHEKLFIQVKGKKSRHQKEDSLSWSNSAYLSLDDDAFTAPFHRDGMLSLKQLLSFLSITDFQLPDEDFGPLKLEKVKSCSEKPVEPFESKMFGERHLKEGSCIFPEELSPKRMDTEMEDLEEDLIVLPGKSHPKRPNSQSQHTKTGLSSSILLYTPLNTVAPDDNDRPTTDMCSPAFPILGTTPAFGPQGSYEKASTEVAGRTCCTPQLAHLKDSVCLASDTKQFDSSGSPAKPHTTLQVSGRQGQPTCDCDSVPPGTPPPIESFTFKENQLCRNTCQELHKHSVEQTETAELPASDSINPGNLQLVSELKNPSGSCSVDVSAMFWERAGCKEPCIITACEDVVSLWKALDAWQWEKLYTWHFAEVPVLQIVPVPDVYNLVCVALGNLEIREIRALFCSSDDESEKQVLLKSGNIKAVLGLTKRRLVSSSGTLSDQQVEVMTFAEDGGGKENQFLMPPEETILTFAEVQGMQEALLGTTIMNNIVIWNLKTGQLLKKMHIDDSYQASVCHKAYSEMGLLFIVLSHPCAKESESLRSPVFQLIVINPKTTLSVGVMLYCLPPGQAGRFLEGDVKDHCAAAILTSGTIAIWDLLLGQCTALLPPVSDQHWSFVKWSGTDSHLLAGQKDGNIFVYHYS
UniProt Q9UBU8: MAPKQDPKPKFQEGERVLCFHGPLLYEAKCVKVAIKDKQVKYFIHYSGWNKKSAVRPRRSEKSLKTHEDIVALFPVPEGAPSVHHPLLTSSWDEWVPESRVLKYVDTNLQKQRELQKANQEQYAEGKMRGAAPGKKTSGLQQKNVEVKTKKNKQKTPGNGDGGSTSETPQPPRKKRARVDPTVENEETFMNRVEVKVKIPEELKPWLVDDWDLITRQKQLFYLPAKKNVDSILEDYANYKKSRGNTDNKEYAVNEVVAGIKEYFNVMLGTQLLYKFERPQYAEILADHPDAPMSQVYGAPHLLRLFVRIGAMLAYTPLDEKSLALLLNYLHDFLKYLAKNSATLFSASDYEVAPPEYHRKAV

Target: FLAG-HA-double tagged PALB2 (human) (UniProt Q86YC2)
Experiment: affinity purification with mass spectrometry; tandem affinity purification (FLAG, HA) of tagged PALB2 from MNase-solubilized (90 min) nuclear fraction of HeLa S3 cells, LC-MS/MS; cells untreated or treated with hydroxyurea or mitomycin C

MRG15 (from UniProt Q9UBU8 1-362) was tested. Which binding did it give?
Its binding is “binds”.
